Percent effect of library compounds

Sequences of proteins named here, by UniProt entry; tags and fusion partners are left off. Residues count along the entry.
UniProt P9WFT3, whole entry: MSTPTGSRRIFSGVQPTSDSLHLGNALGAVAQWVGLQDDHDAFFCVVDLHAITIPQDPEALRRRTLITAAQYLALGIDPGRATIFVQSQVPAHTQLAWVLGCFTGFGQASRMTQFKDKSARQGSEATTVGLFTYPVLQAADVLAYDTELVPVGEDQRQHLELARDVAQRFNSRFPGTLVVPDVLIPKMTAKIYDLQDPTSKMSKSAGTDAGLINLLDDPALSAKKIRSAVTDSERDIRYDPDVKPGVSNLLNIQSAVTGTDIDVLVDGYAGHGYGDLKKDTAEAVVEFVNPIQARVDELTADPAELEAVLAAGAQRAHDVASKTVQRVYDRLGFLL
UniProt I6X8D2, whole entry: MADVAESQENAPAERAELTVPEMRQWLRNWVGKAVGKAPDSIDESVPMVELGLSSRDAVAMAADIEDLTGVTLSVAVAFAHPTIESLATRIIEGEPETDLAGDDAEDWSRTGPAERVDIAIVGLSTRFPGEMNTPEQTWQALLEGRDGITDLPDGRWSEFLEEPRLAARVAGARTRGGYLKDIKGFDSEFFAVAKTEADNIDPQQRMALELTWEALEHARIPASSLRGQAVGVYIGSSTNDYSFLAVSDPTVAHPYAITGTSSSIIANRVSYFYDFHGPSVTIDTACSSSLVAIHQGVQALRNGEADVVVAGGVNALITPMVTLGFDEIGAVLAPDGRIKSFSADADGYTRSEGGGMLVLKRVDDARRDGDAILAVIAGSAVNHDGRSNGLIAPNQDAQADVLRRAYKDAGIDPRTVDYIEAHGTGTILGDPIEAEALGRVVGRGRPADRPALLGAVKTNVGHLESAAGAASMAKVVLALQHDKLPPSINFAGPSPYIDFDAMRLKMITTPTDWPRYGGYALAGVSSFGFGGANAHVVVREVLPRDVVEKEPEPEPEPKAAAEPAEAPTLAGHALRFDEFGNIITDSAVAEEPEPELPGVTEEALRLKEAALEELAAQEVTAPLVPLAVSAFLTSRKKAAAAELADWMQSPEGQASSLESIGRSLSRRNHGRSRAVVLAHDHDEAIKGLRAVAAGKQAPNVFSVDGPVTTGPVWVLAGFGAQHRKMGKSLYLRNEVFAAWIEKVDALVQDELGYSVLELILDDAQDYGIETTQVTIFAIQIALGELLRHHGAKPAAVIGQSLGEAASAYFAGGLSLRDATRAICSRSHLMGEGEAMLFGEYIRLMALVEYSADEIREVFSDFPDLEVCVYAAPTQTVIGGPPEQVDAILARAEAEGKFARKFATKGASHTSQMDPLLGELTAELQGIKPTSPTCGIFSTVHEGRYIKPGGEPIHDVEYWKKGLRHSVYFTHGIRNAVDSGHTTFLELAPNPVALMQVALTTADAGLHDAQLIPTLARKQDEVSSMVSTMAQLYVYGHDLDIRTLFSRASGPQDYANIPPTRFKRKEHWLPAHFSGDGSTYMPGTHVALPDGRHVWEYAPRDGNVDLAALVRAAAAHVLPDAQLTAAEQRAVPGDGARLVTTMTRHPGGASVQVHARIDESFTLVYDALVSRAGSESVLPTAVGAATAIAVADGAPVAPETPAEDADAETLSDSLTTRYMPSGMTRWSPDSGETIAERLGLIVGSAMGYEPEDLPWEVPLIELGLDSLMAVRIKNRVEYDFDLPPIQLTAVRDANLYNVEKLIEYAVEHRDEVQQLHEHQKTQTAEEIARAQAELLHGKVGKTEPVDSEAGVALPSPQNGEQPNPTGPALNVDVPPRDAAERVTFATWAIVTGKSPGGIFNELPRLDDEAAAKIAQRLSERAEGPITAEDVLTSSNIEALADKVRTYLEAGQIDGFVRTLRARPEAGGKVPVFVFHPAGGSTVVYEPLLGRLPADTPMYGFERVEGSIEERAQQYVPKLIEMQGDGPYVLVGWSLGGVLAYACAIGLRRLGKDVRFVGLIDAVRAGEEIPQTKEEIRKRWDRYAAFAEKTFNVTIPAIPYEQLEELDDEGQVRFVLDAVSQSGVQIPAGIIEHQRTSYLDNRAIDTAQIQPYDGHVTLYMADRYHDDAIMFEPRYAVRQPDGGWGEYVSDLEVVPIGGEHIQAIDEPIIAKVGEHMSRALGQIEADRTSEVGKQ
UniProt A4I591, 1-473: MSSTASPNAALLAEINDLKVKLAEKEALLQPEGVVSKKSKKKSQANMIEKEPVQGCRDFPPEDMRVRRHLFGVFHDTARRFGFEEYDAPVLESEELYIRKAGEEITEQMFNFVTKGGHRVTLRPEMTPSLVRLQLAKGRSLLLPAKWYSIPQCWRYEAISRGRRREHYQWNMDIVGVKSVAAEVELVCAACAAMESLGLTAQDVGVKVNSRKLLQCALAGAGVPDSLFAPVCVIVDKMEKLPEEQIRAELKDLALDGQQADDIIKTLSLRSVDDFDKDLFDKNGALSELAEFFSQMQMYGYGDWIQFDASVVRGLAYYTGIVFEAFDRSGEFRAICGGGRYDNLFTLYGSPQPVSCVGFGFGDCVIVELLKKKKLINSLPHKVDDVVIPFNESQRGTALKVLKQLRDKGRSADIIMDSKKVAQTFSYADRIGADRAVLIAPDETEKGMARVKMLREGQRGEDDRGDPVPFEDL
UniProt Q4DA54, 1-478: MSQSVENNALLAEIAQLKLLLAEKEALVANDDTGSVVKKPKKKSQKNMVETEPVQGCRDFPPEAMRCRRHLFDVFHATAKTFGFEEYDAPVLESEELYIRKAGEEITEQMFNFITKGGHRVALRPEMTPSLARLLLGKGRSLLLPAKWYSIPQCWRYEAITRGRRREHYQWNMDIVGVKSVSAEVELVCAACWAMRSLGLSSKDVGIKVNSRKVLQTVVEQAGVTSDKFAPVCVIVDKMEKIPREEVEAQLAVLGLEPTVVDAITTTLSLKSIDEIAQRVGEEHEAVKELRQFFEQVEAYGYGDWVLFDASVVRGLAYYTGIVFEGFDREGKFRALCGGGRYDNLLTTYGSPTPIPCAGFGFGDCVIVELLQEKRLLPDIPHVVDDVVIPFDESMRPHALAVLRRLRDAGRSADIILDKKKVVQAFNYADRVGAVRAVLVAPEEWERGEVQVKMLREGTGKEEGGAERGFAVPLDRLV

The values are deposited in ChEMBL (CHEMBL3988442, “University of Dundee, Small-Polar-MMV Screening Library” (2021)).

Each number is a percent effect as filed.
The controls that fix the scale are not given in the record; negative values are as filed.
Compounds were drawn at random from those tested, without regard to their results.

MtTrpRS: 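Tryptophan-tRNA ligase, Mycobacterium tuberculosis (UniProt P9WFT3). Enzyme assay of tryptophanyl-tRNA synthetase; the read-out is not stated. Tested at 10 µM. Direction is not recorded; retested compounds ran higher, which suggests that high means inhibition. Of about 65,000 compounds tested this way, about 64 (0.098%) reached 50% or more in at least one test.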
Pks13 thioesterase: 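Enzyme assay of the thioesterase domain of polyketide synthase 13; the read-out is not stated. Target: Polyketide synthase Pks13, Mycobacterium tuberculosis (UniProt I6X8D2). Compounds at 30 µM. The record gives no direction; the compounds picked for IC50 retests had high values, so higher reads as stronger inhibition. Of about 67,000 compounds tested this way, about 300 (0.46%) reached 50% or more in at least one test.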
LiHisRS: 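Histidine-tRNA ligase, Leishmania infantum (UniProt A4I591). Enzyme assay of histidyl-tRNA synthetase; the read-out is not stated. Compounds at 30 µM. Higher reads as stronger inhibition (inferred: compounds with an IC50 in retests scored well above the rest). The assay is labelled LdHisRS but filed under L. infantum. Size under these conditions: about 69,000 compounds, about 410 of them at 50% or above in at least one test.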
TcHisRS: 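Enzyme assay of histidyl-tRNA synthetase; the read-out is not stated. Target: Histidine-tRNA ligase, Trypanosoma cruzi CL Brener (UniProt Q4DA54). Compounds at 30 µM. Higher reads as stronger inhibition (inferred: compounds with an IC50 in retests scored well above the rest). Of about 69,000 compounds tested this way, about 31 (0.045%) reached 50% or more in at least one test.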

* CO[C@H]1CN(C(=O)c2ccc(C)o2)[C@@H]2CCCO[C@H]12 : MtTrpRS: -4.941%; Pks13 thioesterase: -21.79%; LiHisRS: 22.81%; TcHisRS: 8.743%
* Cc1c(NC(=O)c2cnc[nH]2)cccc1C(=O)NC(C)(C)C : MtTrpRS: 1.905%; Pks13 thioesterase: -20.37%; LiHisRS: 8.85%; TcHisRS: -1.786%
* CC(C)n1ccnc1C1CCN(Cc2ccc(C(F)(F)F)c(F)c2)CC1 : MtTrpRS: -0.7101%; Pks13 thioesterase: -3.325%; LiHisRS: 27.06%; TcHisRS: 4.036%
* Cc1cc(C(=O)N2C[C@H](CO)C[C@H](CN3CCOCC3)C2)cnc1C : MtTrpRS: -5.44%; Pks13 thioesterase: 2.45%; LiHisRS: -5.376%; TcHisRS: 0.5952%
* CN(C)[C@@H]1CN(C(=O)CCc2ccccc2)[C@@H]2CCCO[C@H]12 : Pks13 thioesterase: -5.59%; LiHisRS: -0.9009%; TcHisRS: -2.21%
* O=C(c1cccnc1O)N1CCC2(CCCO2)CC1 : MtTrpRS: -3.043%; Pks13 thioesterase: 1.975%; LiHisRS: 5.882%; TcHisRS: -1.235%
* c1ccc(Cn2cc3c(n2)C(COCC2CC2)OCC3)nc1 (centres unmarked) : MtTrpRS: -0.3307%; Pks13 thioesterase: -8.796%; LiHisRS: 14.56%; TcHisRS: -22.83%
* CC(CNC(=O)c1cc(C2CC2)on1)N1CCc2ccccc21 (centres unmarked) : MtTrpRS: 0.5111%; Pks13 thioesterase: -16.06%; LiHisRS: -11.97%; TcHisRS: 1.994%
* Cc1cc(-n2c(C)cn(CN(C)CC3CC3)c2=O)no1 : MtTrpRS: -2.573%; Pks13 thioesterase: 2.423%; LiHisRS: 2.083%; TcHisRS: 3.125%
* Cc1ccc(CNCC2CCc3nnc(C(C)C)n3C2)s1 (centres unmarked) : MtTrpRS: -0.7583%; Pks13 thioesterase: -7.818%; LiHisRS: 6.731%; TcHisRS: 5.691%
* CCc1nc(C)c(CC(=O)N2CCC3(CC2)OCCCC3OC)c(=O)[nH]1 (centres unmarked) : MtTrpRS: -0.4989%; Pks13 thioesterase: -22.5%; LiHisRS: 6.667%; TcHisRS: -0.8696%
* Cc1ccc(N2CCCN(C(=O)CCc3ccsc3)CC2)nn1 : MtTrpRS: 4.601%; Pks13 thioesterase: -30.15%; LiHisRS: 8.29%; TcHisRS: 9.392%
* C=C(C)Cn1nnc(C2(NC(=O)c3ccccc3)CCCC2)n1 : MtTrpRS: -1.065%; Pks13 thioesterase: -10.32%; LiHisRS: 9.677%; TcHisRS: 2.299%
* Cc1nc(C)n(CC2CN(CCOc3ccc(C#N)cc3)CCO2)n1 (centres unmarked) : MtTrpRS: -6.257%; Pks13 thioesterase: -7.776%; LiHisRS: 5.172%; TcHisRS: 1.695%
* CCC(CC)NC(=O)c1ccc2nnc(C3CCN(S(C)(=O)=O)C3)n2c1 (centres unmarked) : MtTrpRS: -2.764%; Pks13 thioesterase: 5.153%; LiHisRS: 4.425%; TcHisRS: -0.8%
* Cc1cc(C)c(CNC(=O)NCCNc2cnccn2)c(=O)[nH]1 : MtTrpRS: 0.1324%; Pks13 thioesterase: -15.22%; LiHisRS: 15.38%; TcHisRS: 12.65%
* O=S(=O)(NCCn1ccc(-c2cccs2)n1)C1CC1 : MtTrpRS: 0.07886%; Pks13 thioesterase: 3.649%; LiHisRS: 8.475%; TcHisRS: 1.463%

Repeated from the top, 2 entries:

Compound,MtTrpRS,Pks13 thioesterase,LiHisRS,TcHisRS
CO[C@H]1CN(C(=O)c2ccc(C)o2)[C@@H]2CCCO[C@H]12,-4.941,-21.79,22.81,8.743
Cc1c(NC(=O)c2cnc[nH]2)cccc1C(=O)NC(C)(C)C,1.905,-20.37,8.85,-1.786